Results are given in words; binding and its absence hold for the method and conditions named. In cells and extracts the contact can be indirect. Some results given as binding are weak or reduced against the parent protein; the word gives no strength.
T1: Rabin8 (UniProt Q96QF0)
T1 sequence: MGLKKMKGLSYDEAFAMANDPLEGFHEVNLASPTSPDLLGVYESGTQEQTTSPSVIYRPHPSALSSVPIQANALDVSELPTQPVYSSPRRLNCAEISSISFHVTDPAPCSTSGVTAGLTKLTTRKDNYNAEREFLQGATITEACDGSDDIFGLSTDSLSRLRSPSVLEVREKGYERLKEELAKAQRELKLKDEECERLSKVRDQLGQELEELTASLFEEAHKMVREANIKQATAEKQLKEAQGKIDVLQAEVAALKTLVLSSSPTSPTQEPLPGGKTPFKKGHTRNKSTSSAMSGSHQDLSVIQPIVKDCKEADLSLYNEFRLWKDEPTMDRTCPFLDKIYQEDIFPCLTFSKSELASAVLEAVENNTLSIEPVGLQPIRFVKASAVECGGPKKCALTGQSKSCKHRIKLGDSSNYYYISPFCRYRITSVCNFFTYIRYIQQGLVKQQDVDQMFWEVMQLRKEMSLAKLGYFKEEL


Columns and labels:
Rabin8 = molecular target: T1, Rabin8; assay: co-IP; HEK293 lysates (Rabin8 and Myc-Rheb co-transfected) precipitated with anti-Rabin8 antibody, 12 h at 4 C, protein-A-agarose; immunoblot with anti-Myc; cells in medium with growth factors, without growth factors, or after short-term stimulation
Myc-Rheb fusion protein [1] = molecular target: Myc-Rheb fusion protein (UniProt Q15382); assay: condition: only cells in medium without growth factors; co-IP; as a2 (anti-Myc precipitation, immunoblot with anti-Rabin8 and anti-mTOR), but cells grown in medium without growth factors
Myc-Rheb fusion protein [2] = molecular target: Myc-Rheb fusion protein (UniProt Q15382); assay: co-IP; HEK293 lysates (Rabin8 and Myc-Rheb co-transfected) precipitated with anti-Myc antibody, 12 h at 4 C, protein-A-agarose; immunoblot with anti-Rabin8 and anti-mTOR; cells in medium with growth factors or after short-term stimulation

binding (Rabin8) | binding (Myc-Rheb fusion protein [1]) | binding (Myc-Rheb fusion protein [2]) | Molecule
binds | – | – | Myc-Rheb fusion protein (from UniProt Q15382 1-184) (enzyme)
– | no binding | binds | Rabin8 (protein, UniProt Q96QF0 1-476) MGLKKMKGLSYDEAFAMANDPLEGFHEVNLASPTSPDLLGVYESGTQEQTTSPSVIYRPHPSALSSVPIQANALDVSELPTQPVYSSPRRLNCAEISSISFHVTDPAPCSTSGVTAGLTKLTTRKDNYNAEREFLQGATITEACDGSDDIFGLSTDSLSRLRSPSVLEVREKGYERLKEELAKAQRELKLKDEECERLSKVRDQLGQELEELTASLFEEAHKMVREANIKQATAEKQLKEAQGKIDVLQAEVAALKTLVLSSSPTSPTQEPLPGGKTPFKKGHTRNKSTSSAMSGSHQDLSVIQPIVKDCKEADLSLYNEFRLWKDEPTMDRTCPFLDKIYQEDIFPCLTFSKSELASAVLEAVENNTLSIEPVGLQPIRFVKASAVECGGPKKCALTGQSKSCKHRIKLGDSSNYYYISPFCRYRITSVCNFFTYIRYIQQGLVKQQDVDQMFWEVMQLRKEMSLAKLGYFKEEL
